No constants are given. Whether binding was seen depends on the method and setting. Some entries that bind do so weakly or less than the wild type.
Columns and labels:
[1] = target: human IL-4 receptor alpha (human) (UniProt P24394); assay: biochemical binding assay and/or the method of Example 2 (CD23 on human B cells)
[2] = target: human IL-4 receptor alpha (human) (UniProt P24394); assay: screen of a human light chain variable region library paired with H1

Chains of the proteins cited; added tags and fusions are not shown. Lines headed by an entry give the natural chain unless they say otherwise; changes in a name come on top.
UniProt P24394: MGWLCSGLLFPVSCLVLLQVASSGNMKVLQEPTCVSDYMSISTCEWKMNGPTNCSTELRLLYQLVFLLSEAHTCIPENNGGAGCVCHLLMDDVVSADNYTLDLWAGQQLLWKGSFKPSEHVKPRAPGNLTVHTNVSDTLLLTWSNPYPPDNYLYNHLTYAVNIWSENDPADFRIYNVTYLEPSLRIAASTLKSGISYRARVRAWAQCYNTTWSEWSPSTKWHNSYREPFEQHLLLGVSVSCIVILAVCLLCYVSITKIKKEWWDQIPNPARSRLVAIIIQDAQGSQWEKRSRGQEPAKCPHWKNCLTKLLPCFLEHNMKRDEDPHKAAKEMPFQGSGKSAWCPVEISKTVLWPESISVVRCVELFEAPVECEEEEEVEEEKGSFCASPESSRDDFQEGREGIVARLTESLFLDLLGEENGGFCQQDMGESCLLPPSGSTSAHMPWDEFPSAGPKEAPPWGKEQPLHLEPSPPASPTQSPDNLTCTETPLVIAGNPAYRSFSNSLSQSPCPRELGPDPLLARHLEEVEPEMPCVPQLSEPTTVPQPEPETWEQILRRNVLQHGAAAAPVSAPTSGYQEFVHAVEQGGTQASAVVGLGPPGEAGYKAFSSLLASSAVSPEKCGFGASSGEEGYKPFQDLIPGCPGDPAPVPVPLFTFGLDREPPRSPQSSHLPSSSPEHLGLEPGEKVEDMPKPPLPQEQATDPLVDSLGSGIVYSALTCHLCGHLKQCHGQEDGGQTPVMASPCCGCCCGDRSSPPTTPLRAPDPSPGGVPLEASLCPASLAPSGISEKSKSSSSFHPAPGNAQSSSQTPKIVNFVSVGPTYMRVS

Row | Binder | binding [1] | binding [2]
1 | L3H1 (antibody, V domains shown) VH: EVQLVQSGGGLVHPGGSLRLSCAGSGFTFSRNAMFWVRQAPGKGLEWVSGIGTGGATNYADSVKGRFTISRDNAKNSLYLQMNSLRAEDMAVYYCARGRYYFDYWGQGTLVTVSS VL: EIVLTQSPGTLSLSPGERATLSCRASQTVNSDYLAWYQQKPGQAPRLLIYGASSRATGIPDRFSGSGSGTDFTLTISRLEPEDFAVYYCQQYGRSPPWTFGQGTKVDIK | binds | binds
2 | L4H1 (antibody, V domains shown) VH: EVQLVQSGGGLVHPGGSLRLSCAGSGFTFSRNAMFWVRQAPGKGLEWVSGIGTGGATNYADSVKGRFTISRDNAKNSLYLQMNSLRAEDMAVYYCARGRYYFDYWGQGTLVTVSS VL: EIVMTQSPGTLSLSPGERATLSCRASQSVSSDYLAWYQQKPGQAPRLLIYGASSRASGIPDRFSGSGFGTDFTLTISRLEPEDFAIYYCQQYGSSPPWTFGQGTKVEIK | binds | binds
3 | L5H1 (antibody, V domains shown) VH: EVQLVQSGGGLVHPGGSLRLSCAGSGFTFSRNAMFWVRQAPGKGLEWVSGIGTGGATNYADSVKGRFTISRDNAKNSLYLQMNSLRAEDMAVYYCARGRYYFDYWGQGTLVTVSS VL: DIVLTQSPATLSLSPGERATLSCRASQSVNSNYLAWYQQKPGQAPRLLIYGTSYRATGIPDRFSGSGSGTDFTLTITRLEPEDFAVYYCQQYGSSPPWTFGQGTRLEIK | binds | binds
4 | L6H1 (antibody, V domains shown) VH: EVQLVQSGGGLVHPGGSLRLSCAGSGFTFSRNAMFWVRQAPGKGLEWVSGIGTGGATNYADSVKGRFTISRDNAKNSLYLQMNSLRAEDMAVYYCARGRYYFDYWGQGTLVTVSS VL: DIVLTQTPATLSLSPGERATLSCRASQSVGSSYLAWYQQRPGQAPRLLIYGASSRATGIPDRFSGSGSGTDFTLTISRLEPEDFAVYYCQQYGSSPPWMFGQGTKVEIK | binds | binds

— patent publication US20050112694A1
